From paper PMC7555312, “Functional Characterization of Temporin-SHe, a New Broad-Spectrum Antibacterial and Leishmanicidal Temporin-SH Paralog from the Sahara Frog (Pelophylax saharicus)” (International Journal of Molecular Sciences, 2020)
Read-outs that look alike come from different tables or passages of the source. Where no end group is shown, it is not given here.

For FLPALAGIAGLLGKIF-NH2 [Temporin-SHe], the “effect on main transition peak of MLVs (DSC)” value (peptide–lipid ratio 1:50) was “two-component main phase transition”, the “effect on pretransition peak of MLVs (DSC)” value (“effect on pretransition peak” below) (peptide–lipid ratio 1:50) was “abolished” and the “effect on pretransition peak” value (peptide–lipid ratio 1:100) was “abolished”. The “effect on pretransition peak” value (peptide–lipid ratio 1:200) was “reduced”.
